For this assay, the target named is FLAG-PTIP^WT (Pax2 transactivation domain interacting protein; PAX interacting protein 1) (human (from 293T cDNA)) (UniProt Q6ZW49). The assay can be described thus: co-IP; co-IP of PTIP with nucleases that act at the replication fork (Fig. S2, A-C); cells, bait and tags not shown.

The chains behind the UniProt entries cited, without tags or fusion partners.
UniProt Q6ZW49: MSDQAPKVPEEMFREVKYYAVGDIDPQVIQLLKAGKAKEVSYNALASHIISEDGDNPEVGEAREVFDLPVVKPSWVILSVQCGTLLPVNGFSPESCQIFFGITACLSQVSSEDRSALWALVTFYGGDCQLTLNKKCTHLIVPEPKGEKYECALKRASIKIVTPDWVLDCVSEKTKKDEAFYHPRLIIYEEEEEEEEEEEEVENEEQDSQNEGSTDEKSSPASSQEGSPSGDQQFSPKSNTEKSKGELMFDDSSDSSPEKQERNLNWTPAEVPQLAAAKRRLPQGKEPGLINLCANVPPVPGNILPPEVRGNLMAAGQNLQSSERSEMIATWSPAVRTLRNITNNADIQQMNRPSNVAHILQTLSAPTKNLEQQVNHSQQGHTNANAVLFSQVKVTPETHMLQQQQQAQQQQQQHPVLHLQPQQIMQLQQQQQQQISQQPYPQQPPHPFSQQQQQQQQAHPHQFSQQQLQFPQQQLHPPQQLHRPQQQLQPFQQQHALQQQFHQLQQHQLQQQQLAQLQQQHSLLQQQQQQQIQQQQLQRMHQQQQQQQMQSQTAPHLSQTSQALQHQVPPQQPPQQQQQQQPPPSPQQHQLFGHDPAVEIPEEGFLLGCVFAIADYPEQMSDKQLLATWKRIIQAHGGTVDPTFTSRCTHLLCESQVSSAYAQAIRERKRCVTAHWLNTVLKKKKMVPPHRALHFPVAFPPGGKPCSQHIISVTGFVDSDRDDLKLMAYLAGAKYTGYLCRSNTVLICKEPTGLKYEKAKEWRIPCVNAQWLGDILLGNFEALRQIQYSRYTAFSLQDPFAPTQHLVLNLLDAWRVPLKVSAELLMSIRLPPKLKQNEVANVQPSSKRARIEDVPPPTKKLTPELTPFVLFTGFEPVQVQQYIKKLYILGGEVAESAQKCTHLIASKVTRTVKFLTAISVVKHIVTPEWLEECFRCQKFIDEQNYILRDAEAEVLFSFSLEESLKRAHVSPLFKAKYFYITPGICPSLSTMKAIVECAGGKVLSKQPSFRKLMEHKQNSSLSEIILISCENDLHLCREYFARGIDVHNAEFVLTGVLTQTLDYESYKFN
UniProt Q8IY92: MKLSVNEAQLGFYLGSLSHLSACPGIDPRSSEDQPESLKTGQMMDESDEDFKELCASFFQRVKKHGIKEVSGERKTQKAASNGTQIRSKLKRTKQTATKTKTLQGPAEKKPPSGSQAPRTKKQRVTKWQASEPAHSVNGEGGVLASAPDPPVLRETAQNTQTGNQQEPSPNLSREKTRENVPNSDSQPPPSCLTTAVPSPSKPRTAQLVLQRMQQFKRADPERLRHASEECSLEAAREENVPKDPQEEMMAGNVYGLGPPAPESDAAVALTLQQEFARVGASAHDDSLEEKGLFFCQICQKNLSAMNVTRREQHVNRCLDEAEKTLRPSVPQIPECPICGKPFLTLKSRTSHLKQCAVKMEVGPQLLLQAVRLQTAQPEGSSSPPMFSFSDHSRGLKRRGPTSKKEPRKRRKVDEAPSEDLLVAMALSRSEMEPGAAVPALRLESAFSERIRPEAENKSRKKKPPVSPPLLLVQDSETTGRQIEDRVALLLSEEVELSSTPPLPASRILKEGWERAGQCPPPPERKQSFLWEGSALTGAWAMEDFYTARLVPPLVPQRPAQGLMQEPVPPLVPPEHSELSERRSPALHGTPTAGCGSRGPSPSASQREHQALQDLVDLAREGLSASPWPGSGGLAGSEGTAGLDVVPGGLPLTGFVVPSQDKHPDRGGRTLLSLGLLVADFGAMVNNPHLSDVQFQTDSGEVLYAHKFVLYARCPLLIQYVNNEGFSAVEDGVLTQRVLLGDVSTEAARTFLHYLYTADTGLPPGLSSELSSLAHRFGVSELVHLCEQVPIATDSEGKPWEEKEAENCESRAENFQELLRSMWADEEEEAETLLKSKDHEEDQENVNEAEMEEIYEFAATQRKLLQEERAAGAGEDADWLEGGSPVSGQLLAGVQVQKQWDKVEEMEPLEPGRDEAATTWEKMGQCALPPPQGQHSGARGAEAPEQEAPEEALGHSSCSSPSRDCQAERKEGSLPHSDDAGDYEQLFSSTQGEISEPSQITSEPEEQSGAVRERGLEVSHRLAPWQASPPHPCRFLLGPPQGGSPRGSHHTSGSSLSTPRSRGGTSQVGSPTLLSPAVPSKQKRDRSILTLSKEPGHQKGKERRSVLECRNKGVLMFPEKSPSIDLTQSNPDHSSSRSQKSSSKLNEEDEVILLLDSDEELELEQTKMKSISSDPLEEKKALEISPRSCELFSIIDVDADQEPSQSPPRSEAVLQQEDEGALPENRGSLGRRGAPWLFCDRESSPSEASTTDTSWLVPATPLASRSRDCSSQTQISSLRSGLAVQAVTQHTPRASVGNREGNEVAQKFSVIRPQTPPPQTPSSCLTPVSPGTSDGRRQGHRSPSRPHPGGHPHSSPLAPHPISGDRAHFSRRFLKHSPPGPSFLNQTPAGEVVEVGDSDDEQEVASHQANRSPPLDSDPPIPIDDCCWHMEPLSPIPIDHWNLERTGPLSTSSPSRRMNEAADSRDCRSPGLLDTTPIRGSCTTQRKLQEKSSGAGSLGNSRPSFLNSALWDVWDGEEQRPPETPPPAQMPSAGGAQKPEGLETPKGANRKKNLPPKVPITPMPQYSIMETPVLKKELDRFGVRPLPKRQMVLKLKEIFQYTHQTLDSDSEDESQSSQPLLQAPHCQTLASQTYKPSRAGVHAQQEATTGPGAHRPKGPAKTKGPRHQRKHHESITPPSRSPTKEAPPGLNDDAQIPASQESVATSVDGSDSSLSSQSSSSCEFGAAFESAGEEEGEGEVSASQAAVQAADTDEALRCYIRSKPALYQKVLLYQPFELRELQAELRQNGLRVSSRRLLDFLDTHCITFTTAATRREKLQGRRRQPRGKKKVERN

These are yes or no findings as the source states them, for the method shown. Binding seen in cells or lysates may run through a third protein. Some results given as binding are weak or reduced against the parent protein; the word gives no strength.

Consider SLX4 (from UniProt Q8IY92 1-1834), for which the binding entry was “binds”.

Source of the values: paper PMC11130726.
